# In the supplement of paper PMC3334620:
# Over roughly 33,000 sequences, “E-score (-0.5 to 0.5)” has its median near -0.0034; the highest 2% begin near 0.25. The list shows a part of the results.
# Molecular target: T1, Yap3 (UniProt P38749)
# T1 sequence: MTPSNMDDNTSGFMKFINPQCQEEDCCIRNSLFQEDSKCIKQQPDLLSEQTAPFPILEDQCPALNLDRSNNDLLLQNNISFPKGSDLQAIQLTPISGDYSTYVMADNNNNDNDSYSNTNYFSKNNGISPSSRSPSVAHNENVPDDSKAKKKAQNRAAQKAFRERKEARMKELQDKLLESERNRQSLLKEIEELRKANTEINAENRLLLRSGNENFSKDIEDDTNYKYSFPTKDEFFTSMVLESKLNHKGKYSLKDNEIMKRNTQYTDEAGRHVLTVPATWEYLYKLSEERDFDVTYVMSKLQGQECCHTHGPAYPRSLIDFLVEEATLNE
# Experiment: PBM E-score (8-mer binding enrichment) (E-score (-0.5 to 0.5)); higher = stronger / more preferred TF binding
# Details: protein concentration: 100 nM; construct: GST-full length
# Outline: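 The E-score, a modified Wilcoxon-Mann-Whitney statistic, was computed by the Universal PBM Analysis Suite for every ungapped eight-base word pooled with its reverse complement. Scans behind it were normalised with masliner after bound GST-tagged yeast transcription factors were detected with fluorescent anti-GST. The proteins, at about 100-200 nM, had been applied to universal all-10-mer Agilent arrays made double-stranded by primer extension.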
row,Sequence,PBM E-score
1,GGACCTAA,0.0689
2,GGGGGACA,-0.139
3,CGTGGAAG,0.13
4,CGCCTTAA,0.0344
5,CTATAGAC,-0.101
6,GTGTAGAA,-0.0487
7,CGACGAAG,-0.0428
8,AGCTTGGG,-0.0575
9,GGTTTGCA,-0.0541
10,CCCTAGCA,-0.193
11,GCTCTGCC,-0.236
12,ACTACCTA,0.0156
13,AACCATTG,0.00934
14,ATCCTTGC,-0.091
15,CAGAATGA,0.105
16,GAAATGAA,0.289
17,CCAGAACC,-0.0461
18,AATTACCC,0.107
19,CCAAAGCA,0.0424
20,CCTCTTAC,0.0115
21,TGGCTCAA,-0.167
22,AATCTGAT,-0.00633
23,AGTTCCTG,-0.15
24,CATTGCGA,0.0958
25,CGTTCAAA,-0.0545

row,Sequence,PBM E-score
1,GGATTCCC,-0.307
2,CATTGAGA,-0.0633
3,AGCAAACA,0.183
4,CCAGGTCA,-0.233
5,CAGCGTCA,-0.163
6,GGGTTAAC,-0.0107
7,CGTCGGAA,0.133
8,AAATGAAA,0.324
9,AGGCTTAA,0.0671
10,CGACTCGA,-0.0784
11,CCACTTGC,-0.017
12,ACCCATCT,0.0208
13,CAAGAACA,-0.0451
14,ATCTCCGC,-0.0256
15,GGTATGTA,0.0396
16,GAGATGGA,-0.178
17,CTCCGAAA,-0.16
18,ACGAGGGA,0.00788
19,CGCAAAGC,-0.105
20,AGTTTAAG,0.0273
21,TTAAGCAA,0.0488
22,CTGAGACA,-0.0945
23,GATTAGGA,0.0229
24,CTCAGGAA,-0.184
25,CTCCTGGA,-0.222

# Part of the list above in a different format.
row	Sequence	PBM E-score
20	AGTTTAAG	0.0273
21	TTAAGCAA	0.0488
22	CTGAGACA	-0.0945
23	GATTAGGA	0.0229

# Additional entries.

row,Sequence,PBM E-score
1,GCGCTCGA,-0.0438
2,TAATTCTA,0.21
3,ACGTCGGG,-0.207
4,GCCGGACA,-0.0331
5,CCGCGTTA,0.0529
6,ATCCAGTG,0.0972
7,GGCCGCCA,-0.216
8,CCATCTCC,0.073
9,AGCTCTTA,-0.0963
10,CTAGATGC,-0.124
11,AGGATTCC,-0.244
12,GACTGTGA,0.0125
13,AGCCCATA,-0.0674
14,ATGTTATA,0.0586
15,ATAGGCAA,-0.0278
16,ACTCGCTC,0.0802
17,AGGAACCT,0.1
18,CTCTCGCC,-0.195
19,GGCTGAAA,0.0542
20,AGATCGAA,0.07
21,ATGTCGGA,-0.0348
22,GAATTACA,0.109
23,GCGGGAAA,0.0866
24,CCCATCGC,-0.0437
25,GTTTCTTA,0.118

row,Sequence,PBM E-score
1,CGTGACCC,-0.189
2,AGTGGCCG,-0.119
3,CCCTGAGG,-0.224
4,CCATAATA,0.214
5,CAGTGATC,-0.0583
6,ATTCATCC,0.207
7,AAAAGGTT,-0.0346
8,AGATAGTC,-0.197
9,CGTATTAG,0.152
10,TCTAGAGA,-0.291
11,GAGTGTGA,0.139
12,GCAGCGGC,-0.238
13,AAAGCCGC,-0.0895
14,CGGCCAAC,-0.0886
15,ATCCCTAA,-0.174
16,CGGAGGGA,-0.233
17,GAGAAACA,0.218
18,CCGTTGCG,-0.0568
19,CACACGTA,-0.0208
20,CAATGAGA,-0.034
21,ACGGTTAT,0.113
22,AGGTAGTG,-0.011
23,AAATTGGA,0.214
24,ACCAGGTA,-0.27
25,AACGATTG,0.107

row,Sequence,PBM E-score
1,CCTTGGAG,-0.0876
2,ACCGTCCT,0.0138
3,CGTCGGTA,-0.178
4,AGTCACCC,-0.079
5,GAATAAAA,0.178
6,ACCAGCGC,0.0291
7,GCTTGATA,0.1
8,TCCTAAGA,-0.15
9,GTTGTAAA,-0.11
10,ATATGATG,0.171
11,AGGGCAGC,-0.0608
12,AAACATGG,0.0297
13,ATGCACAA,0.152
14,GGACTCTA,-0.222
15,ACGGCGAG,0.12
16,AACGGGAA,0.0544
17,GCATACAA,0.188
18,GCATCCCC,-0.134
19,ACGTGTAG,-0.166
20,ACCACGTG,0.0326
21,TCAAATGA,0.0135
22,AATGAAGT,0.177
23,ATATCGGG,0.143
24,CTCATAGA,0.0689
25,ACAAAGTG,0.0611

row,Sequence,PBM E-score
1,TATACTGA,0.295
2,ACAATCGA,-0.00279
3,ACGCGCGG,0.16
4,CACGCCGG,-0.0727
5,TGAAAAAA,0.197
6,ATTATTAA,0.378
7,GCCATCGC,-0.205
8,ATGAGGAC,0.0113
9,AGATAATG,0.196
10,CGTTTGCC,0.0367
11,TGTGATAA,0.205
12,AAGTGCAA,0.0907
13,ATGAATAC,0.163
14,TCGCCCAA,-0.206
15,CAACCGGG,-0.218
16,TGATTCAA,0.0187
17,CACATGGA,-0.154
18,CTGAACGC,-0.109
19,CAATACGC,0.0749
20,CCGGCCGG,-0.151
21,AGAAGTCC,-0.248
22,CCCGGCAA,-0.169
23,GCCCTGCC,-0.261
24,AGGTGAGG,0.0455
25,TTCCTAAA,-0.0151

row,Sequence,PBM E-score
1,GCATCACC,-0.175
2,GGTGACAA,0.14
3,AAGAGGTG,0.133
4,CTACCGCA,-0.0328
5,CATAATCG,0.187
6,ATTAAGTC,0.127
7,CTGAAGTC,-0.0743
8,ACTCTAAA,0.0706
9,TCGGCGAA,0.0737
10,AGCGCGCT,0.123
11,GCTTGCCA,0.00223
12,AGGTATTA,0.209
13,ACTACTAG,0.202
14,CTTTCGTA,0.159
15,ACGCTAGG,-0.201
16,GACGTACC,0.0335
17,AATATTAA,0.346
18,AGCCTAAT,0.0381
19,ATATATGA,0.185
20,AACAACGC,0.0808
21,CGGTCCAG,-0.297
22,GTATGATA,0.282
23,CACCCTTA,0.0425
24,ACGTCAAA,0.133
25,GCCAGGCA,-0.12

row,Sequence,PBM E-score
1,ATTTCCAC,0.244
2,GAAACTTC,-0.0423
3,ATCCGTCC,-0.00156
4,CGGGTACC,-0.163
5,ACGGCGGC,-0.0245
6,AGTGCTGA,-0.0503
7,ACGAACCG,-0.0334
8,CCCTTACC,-0.0844
9,AGCTCTTG,-0.278
10,ATTAAAGG,0.199
11,CAGGAACC,-0.123
12,CTCTTCCC,-0.136
13,AGCGTGAC,-0.116
14,AATTGGTC,0.197
15,AGATCTAT,-0.115
16,ATATCCAT,0.241
17,CACGTCAA,-0.134
18,CGCTGGTA,-0.0139
19,AACCACCT,0.0296
20,AAGCTTGG,-0.0871
21,ACGCCATG,-6e-05
22,ACCCAAGT,0.112
23,AACGATCG,0.175
24,ATACTGGG,-0.0943
25,AACTAGTC,0.131

# Some values from the entries so far:
# AGCGTGAC | PBM E-score: -0.116
# AACTAGTC | PBM E-score: 0.131
# CACGTCAA | PBM E-score: -0.134
# AACGATCG | PBM E-score: 0.175
# CTCTTCCC | PBM E-score: -0.136
# ATACTGGG | PBM E-score: -0.0943

# (continued)

row,Sequence,PBM E-score
1,AGGAGGAA,-0.26
2,ATTGTATA,0.298
3,TGGCAACA,0.0492
4,CGGAGGAA,-0.295
5,AGGTCTTG,-0.0861
6,AAGGGGGA,-0.0895
7,CCTTAGGA,-0.104
8,TATTTCAA,0.235
9,AATCCAGT,0.116
10,CAACAGGC,-0.0576
11,CCTGGCGA,-0.166
12,TGAGCGCA,-0.129
13,CGCCCAGA,-0.141
14,AGGGCCCC,-0.331
15,AGGGGTCC,-0.252
16,ACCGTTTG,-0.0393
17,TAGCTCAA,-0.0451
18,AAAGTTGC,-0.0736
19,TACCGTCA,-0.0498
